Measured values as given in article doi:10.1101/2022.09.16.508217 (bioRxiv, 2022).
Results are given in words; binding and its absence hold for the method and conditions named. In cells and extracts the contact can be indirect. Some results given as binding are weak or reduced against the parent protein; the word gives no strength.

Amino acid sequences for entries named in this document (tags omitted). A change or cut given only in a name is not applied to a line headed by its entry. Chains listed by the source or under a name are the forms on record and can include a tag or linker.
UniProt P15873: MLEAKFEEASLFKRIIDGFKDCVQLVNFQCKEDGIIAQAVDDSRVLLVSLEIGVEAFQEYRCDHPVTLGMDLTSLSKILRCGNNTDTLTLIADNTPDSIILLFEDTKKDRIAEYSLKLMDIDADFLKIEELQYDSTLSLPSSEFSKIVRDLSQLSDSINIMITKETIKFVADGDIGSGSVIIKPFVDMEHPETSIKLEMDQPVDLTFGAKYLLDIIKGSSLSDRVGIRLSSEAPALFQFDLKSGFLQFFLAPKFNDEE
UniProt Q04002: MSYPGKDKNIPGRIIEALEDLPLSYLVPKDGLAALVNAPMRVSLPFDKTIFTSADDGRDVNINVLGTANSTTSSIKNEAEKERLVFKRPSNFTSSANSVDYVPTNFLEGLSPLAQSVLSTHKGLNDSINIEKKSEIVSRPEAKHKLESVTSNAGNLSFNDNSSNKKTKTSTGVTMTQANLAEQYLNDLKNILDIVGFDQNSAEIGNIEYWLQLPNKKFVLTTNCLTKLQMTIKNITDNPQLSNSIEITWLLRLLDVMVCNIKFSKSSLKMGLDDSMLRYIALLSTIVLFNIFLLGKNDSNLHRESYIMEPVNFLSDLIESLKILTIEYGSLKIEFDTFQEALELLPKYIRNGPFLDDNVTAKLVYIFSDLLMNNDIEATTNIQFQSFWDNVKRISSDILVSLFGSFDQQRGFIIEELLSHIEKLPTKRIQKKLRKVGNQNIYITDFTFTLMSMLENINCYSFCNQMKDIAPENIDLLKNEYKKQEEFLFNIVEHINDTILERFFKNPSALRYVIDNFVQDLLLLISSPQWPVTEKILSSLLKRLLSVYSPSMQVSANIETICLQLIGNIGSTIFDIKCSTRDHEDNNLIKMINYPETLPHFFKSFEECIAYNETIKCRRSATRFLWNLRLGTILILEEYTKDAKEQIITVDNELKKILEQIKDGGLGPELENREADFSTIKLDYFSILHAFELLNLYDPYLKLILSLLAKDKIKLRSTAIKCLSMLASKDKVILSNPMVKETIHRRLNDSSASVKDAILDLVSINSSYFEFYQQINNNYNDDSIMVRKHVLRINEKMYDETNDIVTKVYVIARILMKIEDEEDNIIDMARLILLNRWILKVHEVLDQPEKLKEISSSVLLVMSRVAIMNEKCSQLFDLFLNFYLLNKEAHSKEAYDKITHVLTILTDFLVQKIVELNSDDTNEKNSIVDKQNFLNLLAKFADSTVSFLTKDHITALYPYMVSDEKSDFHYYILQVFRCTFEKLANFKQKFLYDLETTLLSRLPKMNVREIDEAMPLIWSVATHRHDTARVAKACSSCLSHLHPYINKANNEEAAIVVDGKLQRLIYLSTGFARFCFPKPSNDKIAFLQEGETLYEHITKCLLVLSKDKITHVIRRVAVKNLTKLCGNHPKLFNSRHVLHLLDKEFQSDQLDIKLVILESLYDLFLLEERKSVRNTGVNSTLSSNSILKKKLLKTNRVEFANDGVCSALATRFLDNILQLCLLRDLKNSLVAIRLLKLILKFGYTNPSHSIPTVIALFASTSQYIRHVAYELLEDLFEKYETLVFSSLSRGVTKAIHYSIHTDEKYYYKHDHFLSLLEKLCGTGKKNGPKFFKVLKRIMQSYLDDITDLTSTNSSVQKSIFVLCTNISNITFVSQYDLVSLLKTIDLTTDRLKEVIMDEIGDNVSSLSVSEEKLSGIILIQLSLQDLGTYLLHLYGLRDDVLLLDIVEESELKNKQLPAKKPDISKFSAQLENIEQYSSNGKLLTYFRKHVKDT
N-terminally 7His8FLAG-tagged Scc2-E822K-pip (PIP mutant variant) (Q04002, form named): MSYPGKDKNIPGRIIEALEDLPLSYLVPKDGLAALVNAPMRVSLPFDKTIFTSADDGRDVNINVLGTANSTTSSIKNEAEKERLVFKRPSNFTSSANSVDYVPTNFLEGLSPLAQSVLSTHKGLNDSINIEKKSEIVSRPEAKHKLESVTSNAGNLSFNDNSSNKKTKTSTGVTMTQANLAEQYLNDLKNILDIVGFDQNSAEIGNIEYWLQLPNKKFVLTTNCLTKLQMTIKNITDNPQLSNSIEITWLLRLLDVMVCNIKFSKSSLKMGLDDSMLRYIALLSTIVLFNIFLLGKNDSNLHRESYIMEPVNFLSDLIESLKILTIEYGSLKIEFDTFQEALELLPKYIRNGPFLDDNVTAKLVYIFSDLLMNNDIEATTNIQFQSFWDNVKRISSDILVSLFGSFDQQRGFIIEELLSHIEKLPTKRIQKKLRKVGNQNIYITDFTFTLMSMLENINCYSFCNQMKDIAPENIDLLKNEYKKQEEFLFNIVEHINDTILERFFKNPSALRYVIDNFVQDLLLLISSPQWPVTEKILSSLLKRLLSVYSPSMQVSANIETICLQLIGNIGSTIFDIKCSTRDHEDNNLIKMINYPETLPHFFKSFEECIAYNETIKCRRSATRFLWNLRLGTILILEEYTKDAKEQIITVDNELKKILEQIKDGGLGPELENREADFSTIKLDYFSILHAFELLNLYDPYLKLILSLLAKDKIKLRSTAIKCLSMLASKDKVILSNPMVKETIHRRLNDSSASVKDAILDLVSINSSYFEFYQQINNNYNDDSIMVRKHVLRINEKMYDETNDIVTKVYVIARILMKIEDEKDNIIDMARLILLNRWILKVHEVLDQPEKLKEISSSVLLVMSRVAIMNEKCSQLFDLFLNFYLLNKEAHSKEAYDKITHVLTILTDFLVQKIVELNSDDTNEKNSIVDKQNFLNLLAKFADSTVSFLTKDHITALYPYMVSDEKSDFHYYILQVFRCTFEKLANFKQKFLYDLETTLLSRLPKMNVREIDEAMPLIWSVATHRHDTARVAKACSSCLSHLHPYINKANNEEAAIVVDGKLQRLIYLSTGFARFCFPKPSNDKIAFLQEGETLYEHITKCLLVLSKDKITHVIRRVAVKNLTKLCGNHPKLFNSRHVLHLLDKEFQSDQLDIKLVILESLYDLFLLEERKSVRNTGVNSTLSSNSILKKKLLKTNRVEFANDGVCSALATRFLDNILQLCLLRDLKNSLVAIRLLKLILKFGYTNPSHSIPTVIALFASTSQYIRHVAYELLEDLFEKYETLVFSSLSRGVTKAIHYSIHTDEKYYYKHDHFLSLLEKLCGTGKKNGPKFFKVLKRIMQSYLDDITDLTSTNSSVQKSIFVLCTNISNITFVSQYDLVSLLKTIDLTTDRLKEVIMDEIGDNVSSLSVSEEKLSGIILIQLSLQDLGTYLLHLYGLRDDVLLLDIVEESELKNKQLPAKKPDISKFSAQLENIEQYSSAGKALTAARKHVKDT

Tests used:
[1] = target: recombinant GST-Pol30 fusion (yeast PCNA) (S. cerevisiae) (UniProt P15873); assay: pull-down
[2] = target: N-terminally 7His8FLAG-tagged Scc2-E822K (S. cerevisiae) (UniProt Q04002); assay: cross-linking
[3] = target: N-terminally 7His8FLAG-tagged Scc2-E822K-pip (PIP mutant variant) (S. cerevisiae) (UniProt Q04002); assay: cross-linking

In the case of “N-terminally 7His8FLAG-tagged Scc2-E822K (from UniProt Q04002 1-1493)”, the binding [1] is reported as “binds”.
With “PCNA (yeast Pol30), endogenous (from UniProt P15873 1-258)” the binding [2] was “binds” and the binding [3] was “no binding”.
